Source: patent publication US20240382614A1, “Self-Assembling Nanoparticles Based On Amphiphilic Peptides for Drug Delivery Applications” (Barinthus Biotherapeutics North America, Inc., priority 2021, published 2024)
At least one compound was matched to its structure with a doubt left.

Columns and labels:
[1] = system: coculture of antigen presenting cells and CD4 T cell clones (“OT-II cells”); test: CD4 T cell induction in coculture of antigen presenting cells and OT-II CD4 T cell clones; assay type: cell-based
[2] = Solubility and loading of mTOR inhibitors in nanoparticle micelles of amphiphiles S-B-[U]-H; assay type: physicochemical; details: Compound 113 with Torin 1, aqueous buffer

## CO[C@H]1C[C@@H]2CC[C@@H](C)[C@@](O)(O2)C(=O)C(=O)N2CCCC[C@H]2C(=O)O[C@H]([C@H](C)C[C@@H]2CC[C@@H](O)[C@H](OC)C2)CC(=O)[C@H](C)/C=C(\C)[C@@H](O)[C@@H](OC)C(=O)[C@H](C)C[C@H](C)/C=C/C=C/C=C/1C [rapamycin]
[1]; D1 in particles of Compound 113 with D2 Compound 166 and D3 Compound 4, pICLC or CpG (Table 8, FIG. 9)
  suppression of T cell proliferation against D2: marginally suppresses T cell proliferation
[1]; D1 in particles of Compound 113 with D2 Compound 166 and D3 MDP, TDB, MPL, LPS or Compound 4 (Table 9, FIG. 10)
  suppression of T cell responses against D2: greater suppression of T cell responses when combined with D3 selected from a NOD-like receptor agonist (muramyl dipeptide (MDP)), a mincle receptor agonist (trehalose dibehenate (TDB)) and TLR4 agonists (LPS and MPL) as compared with D3 selected from a TLR-7/8a (Compound 4)

## CCC(=O)N1CCN(c2ccc(-n3c(=O)ccc4cnc5ccc(-c6cnc7ccccc7c6)cc5c43)cc2C(F)(F)F)CC1 [Torin 1]
[2]
  molar ratio of amphiphile to drug molecule allowing stable nanoparticle micelles: up to 1:4
